Results published in patent US20210246451, “APTAMER FOR ADAMTS5 AND USE FOR APTAMER FOR ADAMTS5” (RIBOMIC INC., published 2021).

Protein sequences, listed by entry. Tags and fused reporters are not part of them. Residues count along the entry.
UniProt Q9UNA0, 262-622: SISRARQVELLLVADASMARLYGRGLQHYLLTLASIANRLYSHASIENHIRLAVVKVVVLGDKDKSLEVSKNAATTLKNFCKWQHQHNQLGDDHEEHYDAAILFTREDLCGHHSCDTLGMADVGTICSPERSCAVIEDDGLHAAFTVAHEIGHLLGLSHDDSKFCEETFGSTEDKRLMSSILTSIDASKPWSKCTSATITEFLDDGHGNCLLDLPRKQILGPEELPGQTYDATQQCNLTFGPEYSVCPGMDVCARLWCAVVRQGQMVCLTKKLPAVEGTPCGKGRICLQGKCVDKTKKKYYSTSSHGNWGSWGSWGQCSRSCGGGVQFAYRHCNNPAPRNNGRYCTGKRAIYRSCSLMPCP

Molecular target: ADAMTS5 (UniProt Q9UNA0)
Test: inhibition of the protein
Conditions: 2'-F pyrimidines; 30 nM; purified recombinant protein; protein details: R&D Systems; variant of SEQ ID NO: 4; counted as no effect

## GGCUUGGGGCCUCACAGCUGCUCAGCUUGACUAAACCAAGCC [SEQ ID NO: 8]
  functional effect of the aptamer: -8.6 % inhibition

## GGCUUGGGGCCUCCACAGCUGCUCAGCUUGGACUAACCAAGCC [SEQ ID NO: 7]
  functional effect of the aptamer: -2.3 % inhibition
